From PMC4695033 come the findings set out here.

Protein sequences, listed by entry. Tags and fused reporters are not part of them.
UniProt Q9P2H5: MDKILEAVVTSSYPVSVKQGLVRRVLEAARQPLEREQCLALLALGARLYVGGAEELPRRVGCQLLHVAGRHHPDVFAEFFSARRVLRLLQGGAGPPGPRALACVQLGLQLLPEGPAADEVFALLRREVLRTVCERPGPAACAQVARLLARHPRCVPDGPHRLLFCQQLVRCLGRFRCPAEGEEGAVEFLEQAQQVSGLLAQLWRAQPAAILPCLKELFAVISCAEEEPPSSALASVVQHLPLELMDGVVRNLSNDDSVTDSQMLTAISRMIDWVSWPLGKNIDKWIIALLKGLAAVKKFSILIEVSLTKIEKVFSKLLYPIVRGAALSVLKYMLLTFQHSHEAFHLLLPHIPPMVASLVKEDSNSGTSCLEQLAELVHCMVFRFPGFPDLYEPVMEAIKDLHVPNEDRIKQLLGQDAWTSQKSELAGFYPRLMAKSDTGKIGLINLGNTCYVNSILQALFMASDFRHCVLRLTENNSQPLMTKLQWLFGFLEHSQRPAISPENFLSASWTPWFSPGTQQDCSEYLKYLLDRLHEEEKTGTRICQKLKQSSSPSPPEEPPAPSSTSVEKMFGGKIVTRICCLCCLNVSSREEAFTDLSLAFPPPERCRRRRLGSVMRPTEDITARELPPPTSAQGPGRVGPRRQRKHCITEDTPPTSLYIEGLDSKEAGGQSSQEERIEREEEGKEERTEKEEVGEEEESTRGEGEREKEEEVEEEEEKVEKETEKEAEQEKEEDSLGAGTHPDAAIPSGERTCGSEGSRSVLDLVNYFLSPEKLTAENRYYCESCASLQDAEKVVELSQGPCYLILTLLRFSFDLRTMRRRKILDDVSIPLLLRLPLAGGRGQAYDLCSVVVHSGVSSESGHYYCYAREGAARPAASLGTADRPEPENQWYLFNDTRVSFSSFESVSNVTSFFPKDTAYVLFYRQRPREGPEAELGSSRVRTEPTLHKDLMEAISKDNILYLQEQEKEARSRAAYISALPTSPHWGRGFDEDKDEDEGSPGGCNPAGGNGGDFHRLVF

This test deals with Myc-tagged USP35 (ubiquitin specific protease 35) (UniProt Q9P2H5). Description: affinity purification with mass spectrometry; H1299 cells transfected with Myc-USP35 or empty vector; lysates immunoprecipitated with anti-Myc, SDS-PAGE, Coomassie blue R-250, a specific band excised for mass spectrometry.

No constants are given. Whether binding was seen depends on the method and setting. Binding seen in cells or lysates may run through a third protein. These calls come from enrichment with a bait or labelling near it, and not all partners need be listed.

B1: endogenous ABIN-2 (TNFAIP3 interacting protein 2) (protein, UniProt Q8NFZ5 1-429)
chain: MSRDPGSGGWEEAPRAAAALCTLYHEAGQRLRRLQDQLAARDALIARLRARLAALEGDAAPSLVDALLEQVARFREQLRRQEGGAAEAQMRQEIERLTERLEEKEREMQQLLSQPQHEREKEVVLLRRSMAEGERARAASDVLCRSLANETHQLRRTLTATAHMCQHLAKCLDERQHAQRNVGERSPDQSEHTDGHTSVQSVIEKLQEENRLLKQKVTHVEDLNAKWQRYNASRDEYVRGLHAQLRGLQIPHEPELMRKEISRLNRQLEEKINDCAEVKQELAASRTARDAALERVQMLEQQILAYKDDFMSERADRERAQSRIQELEEKVASLLHQVSWRQDSREPDAGRIHAGSKTAKYLAADALELMVPGGWRPGTGSQQPEPPAEGGHPGAAQRGQGDLQCPHCLQCFSDEQGEELLRHVAECCQ
For the molecule B1, the binding result is on record as “binds”.
